Record: PubChem BioAssay AID1259425 (University of Nebraska Medical Center, 2018)
Test: 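Seek colon cancer weak points whose silencing resembles KSR1 loss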 (primary screen). System: HCT116 human colon cancer cells. Reagent: siRNA pool against human genes, 50 nM siRNA. Detection: 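mRNA of six signature genes measured together by branched-DNA assay after 50 nM siRNA pool, blank removed, divided by geometric mean of two housekeeping genes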. Reading the numbers: BNIP3L mRNA: higher = more BNIP3L transcript after knockdown; NDRG1 mRNA: higher = more NDRG1 transcript after knockdown; BNIP3 mRNA: higher = more BNIP3 transcript after knockdown; ALDOC mRNA: higher = more ALDOC transcript after knockdown; ACSL5 mRNA: higher = more ACSL5 transcript after knockdown.
Shown is a random part of about 14,000 reagents. The numbers tell different reagents against one gene apart. Some reagents were tested in more than one well and are listed for each. Not given: the time to read-out.

| Target gene | reagent | BNIP3L mRNA, set 1 | NDRG1 mRNA, set 1 | BNIP3 mRNA, set 1 | ALDOC mRNA, set 1 | ACSL5 mRNA, set 1 |
| --- | --- | --- | --- | --- | --- | --- |
| PSME4 | 1 | 0.0801 | 0.124 | 0.324 | 0.00923 | 0.0827 |
| CHD6 | 1 | 0.187 | 0.247 | 0.371 | 0.0789 | 0.276 |
| TRPC7 | 1 | 0.0822 | 0.262 | 0.411 | 0.0247 | 0.352 |
| SLITRK6 | 1 | 0.259 | 0.386 | 0.303 | 0.0359 | 0.421 |
| AKT2 | 1 | 0.183 | 0.412 | 0.428 | 0.00822 | 0.48 |
| COPB2 | 1 | 0.454 | 0.817 | 0.874 | 0.0185 | 0.198 |
| SLC26A10P | 1 | 0.165 | 0.193 | 0.258 | 0.0343 | 0.362 |
| CACNA1B | 1 | 0.0955 | 0.15 | 0.369 | 0.026 | 0.108 |
| MYO1E | 1 | 0.128 | 0.262 | 0.248 | 0.0234 | 0.123 |
| ADRA1A | 1 | 0.118 | 0.194 | 0.23 | 0.0528 | 0.134 |
| ADRA1A | 1 | 0.109 | 0.28 | 0.229 | 0.0193 | 0.242 |
| EPHB1 | 1 | 0.0605 | 0.103 | 0.177 | 0.00571 | 0.197 |

2 consecutive entries already listed, for reference:
| Target gene | reagent | BNIP3L mRNA, set 1 | NDRG1 mRNA, set 1 | BNIP3 mRNA, set 1 | ALDOC mRNA, set 1 | ACSL5 mRNA, set 1 |
| --- | --- | --- | --- | --- | --- | --- |
| AKT2 | 1 | 0.183 | 0.412 | 0.428 | 0.00822 | 0.48 |
| COPB2 | 1 | 0.454 | 0.817 | 0.874 | 0.0185 | 0.198 |

The results go on.
| Target gene | reagent | BNIP3L mRNA, set 1 | NDRG1 mRNA, set 1 | BNIP3 mRNA, set 1 | ALDOC mRNA, set 1 | ACSL5 mRNA, set 1 |
| --- | --- | --- | --- | --- | --- | --- |
| UBE4B | 1 | 0.054 | 0.172 | 0.219 | 0.0113 | 0.0806 |
| STAM | 1 | 0.0917 | 0.167 | 0.307 | 0.0189 | 0.67 |
| GNAI3 | 1 | 0.109 | 0.126 | 0.284 | 0.0305 | 0.117 |
| POU4F3 | 1 | 0.0459 | 0.114 | 0.287 | 0.00418 | 0.088 |
| STK17B | 1 | 0.0411 | 0.0767 | 0.243 | 0.00479 | 0.163 |
| CNTNAP1 | 1 | 0.107 | 0.173 | 0.238 | 0.0149 | 0.0728 |
| FASTKD4 | 1 | 0.145 | 0.904 | 0.356 | 0.0263 | 0.311 |
| LAT | 1 | 0.0545 | 0.368 | 0.174 | 0.0238 | 0.184 |
| PPP1R15A | 1 | 0.0537 | 0.171 | 0.33 | 0.0238 | 0.148 |
| ACYP2 | 1 | 0.118 | 0.0637 | 0.309 | 0.00532 | 0.167 |
| KALRN | 1 | 0.14 | 0.265 | 0.328 | 0.0522 | 0.166 |
| KALRN | 2 | 0.088 | 0.225 | 0.751 | 0.0114 | 0.454 |
| CUTALP | 1 | 0.219 | 0.236 | 0.522 | 0.0876 | 0.255 |
| MARCHF6 | 1 | 0.0965 | 0.298 | 0.323 | 0.0267 | 0.268 |
| SEMA4A | 1 | 0.138 | 0.252 | 0.328 | 0.0184 | 0.271 |
| CLIC4 | 1 | 0.0543 | 0.53 | 0.373 | 0.0181 | 0.158 |
| NR0B1 | 1 | 0.064 | 0.0835 | 0.297 | 0.0224 | 0.0861 |
| PCSK1 | 1 | 0.217 | 0.414 | 0.359 | 0.0464 | 0.1 |
| CYP7A1 | 1 | 0.167 | 0.339 | 0.351 | 0.0322 | 0.231 |
| DDX50 | 1 | 0.156 | 0.157 | 0.512 | 0.0743 | 0.19 |
| FAM234B | 1 | 0.0728 | 0.272 | 0.297 | 0.0237 | 0.264 |
| NBPF3 | 1 | 0.139 | 0.108 | 0.173 | 0.049 | 0.099 |
